From the supplement of paper PMC10849652 come the findings set out here.

The chains behind the UniProt entries cited, without tags or fusion partners. Where a name states a change or a piece, a line headed by the entry shows the natural chain unless it says otherwise.
UniProt P20936: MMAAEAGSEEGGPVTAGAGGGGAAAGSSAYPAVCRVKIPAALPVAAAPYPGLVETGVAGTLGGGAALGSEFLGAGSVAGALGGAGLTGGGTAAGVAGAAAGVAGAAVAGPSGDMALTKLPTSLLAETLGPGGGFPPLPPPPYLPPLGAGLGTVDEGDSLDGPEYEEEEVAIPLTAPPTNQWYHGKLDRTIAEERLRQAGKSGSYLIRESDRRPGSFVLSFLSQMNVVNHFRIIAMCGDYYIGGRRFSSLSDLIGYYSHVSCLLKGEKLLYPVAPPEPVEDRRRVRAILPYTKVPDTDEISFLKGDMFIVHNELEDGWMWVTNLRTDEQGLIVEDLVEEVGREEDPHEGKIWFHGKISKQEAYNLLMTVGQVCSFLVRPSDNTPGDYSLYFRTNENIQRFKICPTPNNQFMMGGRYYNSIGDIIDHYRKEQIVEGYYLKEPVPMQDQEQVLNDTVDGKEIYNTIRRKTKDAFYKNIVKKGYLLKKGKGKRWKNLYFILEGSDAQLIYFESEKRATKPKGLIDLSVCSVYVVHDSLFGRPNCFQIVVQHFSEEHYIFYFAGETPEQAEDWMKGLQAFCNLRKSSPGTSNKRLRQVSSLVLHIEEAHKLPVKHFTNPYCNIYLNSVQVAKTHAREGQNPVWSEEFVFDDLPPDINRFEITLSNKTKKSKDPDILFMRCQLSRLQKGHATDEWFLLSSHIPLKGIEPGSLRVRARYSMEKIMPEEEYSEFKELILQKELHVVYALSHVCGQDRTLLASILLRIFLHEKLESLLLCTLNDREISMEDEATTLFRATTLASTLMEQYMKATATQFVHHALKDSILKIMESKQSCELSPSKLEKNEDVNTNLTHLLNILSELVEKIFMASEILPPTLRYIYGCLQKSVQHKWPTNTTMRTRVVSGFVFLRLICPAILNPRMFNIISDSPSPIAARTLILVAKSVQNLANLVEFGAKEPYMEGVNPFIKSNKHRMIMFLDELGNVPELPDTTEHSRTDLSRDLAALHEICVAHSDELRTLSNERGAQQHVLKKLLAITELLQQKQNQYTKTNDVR
UniProt O75943: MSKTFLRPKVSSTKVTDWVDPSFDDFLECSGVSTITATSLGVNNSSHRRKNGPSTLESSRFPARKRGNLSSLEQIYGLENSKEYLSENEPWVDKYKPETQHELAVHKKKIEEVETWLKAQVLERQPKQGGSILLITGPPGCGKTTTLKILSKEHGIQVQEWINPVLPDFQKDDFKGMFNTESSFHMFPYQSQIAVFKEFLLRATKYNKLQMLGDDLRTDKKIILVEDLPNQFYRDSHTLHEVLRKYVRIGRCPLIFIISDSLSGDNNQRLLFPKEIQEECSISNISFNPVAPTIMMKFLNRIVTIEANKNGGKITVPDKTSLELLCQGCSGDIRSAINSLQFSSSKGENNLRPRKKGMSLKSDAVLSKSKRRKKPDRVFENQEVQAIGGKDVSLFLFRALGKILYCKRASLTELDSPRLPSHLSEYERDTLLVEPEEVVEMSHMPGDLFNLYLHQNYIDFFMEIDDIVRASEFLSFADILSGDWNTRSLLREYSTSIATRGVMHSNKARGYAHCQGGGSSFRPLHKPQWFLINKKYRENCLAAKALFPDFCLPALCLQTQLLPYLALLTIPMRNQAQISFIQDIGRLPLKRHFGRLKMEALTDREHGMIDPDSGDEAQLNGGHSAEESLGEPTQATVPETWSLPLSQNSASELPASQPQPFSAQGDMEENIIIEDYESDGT
UniProt O75771: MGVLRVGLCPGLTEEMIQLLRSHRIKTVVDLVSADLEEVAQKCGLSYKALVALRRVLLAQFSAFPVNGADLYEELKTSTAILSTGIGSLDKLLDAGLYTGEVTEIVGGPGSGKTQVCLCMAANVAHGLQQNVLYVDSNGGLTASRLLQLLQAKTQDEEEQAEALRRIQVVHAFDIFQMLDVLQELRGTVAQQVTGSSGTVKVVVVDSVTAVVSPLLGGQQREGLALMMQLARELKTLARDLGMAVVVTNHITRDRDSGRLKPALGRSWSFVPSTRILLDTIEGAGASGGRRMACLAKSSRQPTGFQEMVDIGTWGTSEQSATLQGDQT
UniProt O60518: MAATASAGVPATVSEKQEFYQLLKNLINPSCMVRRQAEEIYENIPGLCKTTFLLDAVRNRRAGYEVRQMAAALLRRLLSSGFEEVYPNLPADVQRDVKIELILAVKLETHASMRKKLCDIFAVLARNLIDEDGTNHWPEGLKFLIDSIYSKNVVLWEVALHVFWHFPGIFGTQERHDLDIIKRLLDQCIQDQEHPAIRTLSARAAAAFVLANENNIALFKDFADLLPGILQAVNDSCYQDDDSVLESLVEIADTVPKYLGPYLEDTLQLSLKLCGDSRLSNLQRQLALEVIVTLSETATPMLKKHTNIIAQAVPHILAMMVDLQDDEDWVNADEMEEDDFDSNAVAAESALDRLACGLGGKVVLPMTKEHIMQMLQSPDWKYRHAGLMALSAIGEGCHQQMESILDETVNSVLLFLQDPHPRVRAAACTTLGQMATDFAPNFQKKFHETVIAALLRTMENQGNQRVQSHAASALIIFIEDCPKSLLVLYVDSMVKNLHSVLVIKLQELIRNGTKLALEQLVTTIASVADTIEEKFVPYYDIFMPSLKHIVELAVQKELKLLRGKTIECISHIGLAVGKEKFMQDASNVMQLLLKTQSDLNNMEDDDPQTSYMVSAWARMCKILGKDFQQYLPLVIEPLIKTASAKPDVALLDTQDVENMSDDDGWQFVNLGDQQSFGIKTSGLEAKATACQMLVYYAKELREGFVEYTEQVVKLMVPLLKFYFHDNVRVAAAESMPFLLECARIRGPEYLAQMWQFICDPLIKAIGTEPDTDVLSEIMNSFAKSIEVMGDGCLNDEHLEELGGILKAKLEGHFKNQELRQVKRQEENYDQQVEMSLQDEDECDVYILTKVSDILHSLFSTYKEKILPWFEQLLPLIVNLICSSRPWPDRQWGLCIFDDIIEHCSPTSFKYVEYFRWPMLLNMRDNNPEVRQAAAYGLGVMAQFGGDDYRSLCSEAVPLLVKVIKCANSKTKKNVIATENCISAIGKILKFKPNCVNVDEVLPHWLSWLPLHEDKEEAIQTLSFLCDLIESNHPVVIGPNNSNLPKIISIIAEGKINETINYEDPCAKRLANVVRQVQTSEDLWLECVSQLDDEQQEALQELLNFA
UniProt O00194: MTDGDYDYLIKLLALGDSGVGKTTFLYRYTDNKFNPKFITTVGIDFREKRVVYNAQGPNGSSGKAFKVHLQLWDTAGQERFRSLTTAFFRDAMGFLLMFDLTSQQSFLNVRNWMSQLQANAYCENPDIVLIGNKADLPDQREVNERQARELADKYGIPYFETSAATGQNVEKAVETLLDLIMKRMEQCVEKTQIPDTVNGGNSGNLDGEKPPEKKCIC
UniProt Q86X10: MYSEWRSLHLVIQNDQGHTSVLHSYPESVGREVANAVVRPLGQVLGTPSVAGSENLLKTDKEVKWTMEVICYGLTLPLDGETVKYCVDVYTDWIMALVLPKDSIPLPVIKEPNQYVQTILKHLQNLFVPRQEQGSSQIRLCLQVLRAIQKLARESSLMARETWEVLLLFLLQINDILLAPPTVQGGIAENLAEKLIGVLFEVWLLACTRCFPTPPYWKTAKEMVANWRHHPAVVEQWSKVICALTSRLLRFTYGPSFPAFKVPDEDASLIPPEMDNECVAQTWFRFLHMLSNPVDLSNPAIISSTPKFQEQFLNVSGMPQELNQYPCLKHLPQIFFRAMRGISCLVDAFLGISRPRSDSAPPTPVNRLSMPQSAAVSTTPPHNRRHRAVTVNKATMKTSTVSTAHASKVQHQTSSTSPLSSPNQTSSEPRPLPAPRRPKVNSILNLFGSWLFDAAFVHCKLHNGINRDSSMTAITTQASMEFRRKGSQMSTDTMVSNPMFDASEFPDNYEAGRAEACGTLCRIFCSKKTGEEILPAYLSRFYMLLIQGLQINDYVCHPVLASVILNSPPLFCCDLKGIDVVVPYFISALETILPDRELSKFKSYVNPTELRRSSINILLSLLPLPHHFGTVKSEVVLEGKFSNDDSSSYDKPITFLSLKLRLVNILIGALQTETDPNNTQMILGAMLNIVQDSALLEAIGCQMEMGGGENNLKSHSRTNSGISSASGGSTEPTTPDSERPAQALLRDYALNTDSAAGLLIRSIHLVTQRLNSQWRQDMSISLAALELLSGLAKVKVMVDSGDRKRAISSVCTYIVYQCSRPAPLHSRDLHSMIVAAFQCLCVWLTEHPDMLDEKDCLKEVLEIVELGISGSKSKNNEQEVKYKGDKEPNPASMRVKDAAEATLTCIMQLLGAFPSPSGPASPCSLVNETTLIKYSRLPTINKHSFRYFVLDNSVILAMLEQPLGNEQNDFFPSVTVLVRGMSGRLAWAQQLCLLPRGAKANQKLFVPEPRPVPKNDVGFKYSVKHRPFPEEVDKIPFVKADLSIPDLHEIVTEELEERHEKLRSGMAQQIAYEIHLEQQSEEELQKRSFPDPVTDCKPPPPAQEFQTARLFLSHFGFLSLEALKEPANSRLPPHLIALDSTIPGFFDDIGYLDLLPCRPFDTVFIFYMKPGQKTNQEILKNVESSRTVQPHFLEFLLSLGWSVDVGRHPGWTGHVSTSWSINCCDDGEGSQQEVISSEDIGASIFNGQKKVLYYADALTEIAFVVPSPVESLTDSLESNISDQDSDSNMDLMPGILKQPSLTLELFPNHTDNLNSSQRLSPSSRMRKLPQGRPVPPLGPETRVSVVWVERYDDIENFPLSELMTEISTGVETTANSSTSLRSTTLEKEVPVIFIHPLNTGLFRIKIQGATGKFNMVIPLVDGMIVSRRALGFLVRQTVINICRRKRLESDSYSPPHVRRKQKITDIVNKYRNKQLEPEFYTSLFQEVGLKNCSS
UniProt P28749: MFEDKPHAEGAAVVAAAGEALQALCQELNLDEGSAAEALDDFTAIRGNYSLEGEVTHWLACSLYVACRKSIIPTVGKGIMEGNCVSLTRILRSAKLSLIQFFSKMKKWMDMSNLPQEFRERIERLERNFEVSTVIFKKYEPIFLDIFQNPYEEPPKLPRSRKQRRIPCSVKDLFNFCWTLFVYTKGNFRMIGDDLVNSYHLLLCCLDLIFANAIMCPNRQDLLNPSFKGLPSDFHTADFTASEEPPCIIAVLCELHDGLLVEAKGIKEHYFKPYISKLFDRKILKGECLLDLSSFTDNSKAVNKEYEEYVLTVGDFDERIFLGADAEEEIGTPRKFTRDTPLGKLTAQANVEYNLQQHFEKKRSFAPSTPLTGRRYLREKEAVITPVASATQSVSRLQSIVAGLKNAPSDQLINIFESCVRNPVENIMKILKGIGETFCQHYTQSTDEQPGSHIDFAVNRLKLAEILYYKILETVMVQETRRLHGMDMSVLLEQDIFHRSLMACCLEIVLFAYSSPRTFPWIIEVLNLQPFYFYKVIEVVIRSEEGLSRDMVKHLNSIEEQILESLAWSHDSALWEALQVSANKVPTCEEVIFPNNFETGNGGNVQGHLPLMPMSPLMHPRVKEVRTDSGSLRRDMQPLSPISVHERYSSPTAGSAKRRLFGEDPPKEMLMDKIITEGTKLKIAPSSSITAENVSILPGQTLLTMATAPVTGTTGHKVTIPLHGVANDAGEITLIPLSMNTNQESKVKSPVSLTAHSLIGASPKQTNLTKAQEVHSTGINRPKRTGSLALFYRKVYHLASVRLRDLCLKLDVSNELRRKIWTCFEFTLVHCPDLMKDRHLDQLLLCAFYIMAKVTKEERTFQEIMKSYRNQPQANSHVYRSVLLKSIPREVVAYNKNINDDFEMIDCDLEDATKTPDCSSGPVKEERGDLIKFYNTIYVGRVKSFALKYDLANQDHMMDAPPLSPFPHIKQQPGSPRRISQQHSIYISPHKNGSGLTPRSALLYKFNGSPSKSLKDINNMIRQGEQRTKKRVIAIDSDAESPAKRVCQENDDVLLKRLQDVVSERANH
UniProt P54725: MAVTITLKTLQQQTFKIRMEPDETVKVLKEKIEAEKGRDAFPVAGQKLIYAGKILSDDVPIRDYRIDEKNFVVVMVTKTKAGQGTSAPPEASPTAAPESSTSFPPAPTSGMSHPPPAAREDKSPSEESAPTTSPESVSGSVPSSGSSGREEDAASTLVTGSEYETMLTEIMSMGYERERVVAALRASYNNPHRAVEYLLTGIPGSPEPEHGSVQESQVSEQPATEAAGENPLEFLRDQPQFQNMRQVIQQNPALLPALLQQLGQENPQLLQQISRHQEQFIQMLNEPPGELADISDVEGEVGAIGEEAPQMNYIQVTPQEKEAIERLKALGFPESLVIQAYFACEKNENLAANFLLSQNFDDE
UniProt P20337: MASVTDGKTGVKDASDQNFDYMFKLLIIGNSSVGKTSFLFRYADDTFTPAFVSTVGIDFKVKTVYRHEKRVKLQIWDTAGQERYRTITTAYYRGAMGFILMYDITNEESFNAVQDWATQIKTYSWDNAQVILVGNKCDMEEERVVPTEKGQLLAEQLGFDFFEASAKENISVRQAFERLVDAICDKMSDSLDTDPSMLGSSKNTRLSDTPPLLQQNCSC

The other results are listed elsewhere or left out.

Compound in the first assay: CC(C)N(C[C@H]1O[C@@H](n2cnc3c(N)ncnc32)[C@H](O)[C@@H]1O)[C@H]1C[C@@H](CCc2nc3cc(C(C)(C)C)ccc3[nH]2)C1 [pinometostat]
The experiment in a line: log2 fold change, soluble protein after heating vs DMSO (PISA); higher = thermal stabilisation; K562 cells, 10 uM, 30 min; active = over 0.2 and 3.5 SD of the protein, either way, in both replicates (recomputed). An outline of the steps: (§1)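 Soluble protein was quantified by TMTpro 16plex LC-MS/MS after channel sums were equalised. It was obtained as the supernatant after 21,000xg for 90 min from pooled aliquots of K562 cells (2×10^6 cells/mL, 10 μM compound, 30 min) heated for 3 min across 48°C-58°C and extracted in PBS with 0.5% NP-40 at 4°C. Thermal stability values are relative to control samples and come from duplicates. They are given as log2 fold changes.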
As for RBM14 (UniProt Q96PK6), the log2 fold change is inactive: 0.174.

Turning to RAB28 (UniProt P51157), the log2 fold change was inactive: 0.028.

For the target RAD50, A0A494C0Y7, the log2 fold change is inactive: 0.015.

On to RAB19 isoform 2 (UniProt A4D1S5), for which the log2 fold change was inactive: 0.002.

Take RAB18 (UniProt H0Y6T8): the log2 fold change is inactive: 0.005.

Regarding RALBP1 (UniProt Q15311), the log2 fold change is inactive: 0.086.

Consider RASA1 (UniProt P20936), for which the log2 fold change is inactive: 0.124.

Regarding RAD17 (UniProt O75943), the log2 fold change was inactive: 0.222.

RASA2 (UniProt Q15283): the log2 fold change was inactive: 0.072.

As to RBBP8 isoform 2 (UniProt Q99708), the log2 fold change was inactive: 0.03.

Take RAP1B (UniProt F5GWU8): the log2 fold change was inactive: 0.004.

In the case of RAD51D (UniProt O75771), the log2 fold change is inactive: 0.07.

Regarding RANBP6 (UniProt O60518), the log2 fold change is inactive: 0.104.

For RAB27B (UniProt O00194), the log2 fold change is inactive: -0.02.

Regarding RAPGEF5, A0A590UJR0, the log2 fold change was inactive: -0.146.

Turning to RALGAPB (UniProt Q86X10), the log2 fold change was inactive: 0.042.

Compound in another assay: CC1=C(C(CC(=O)N1)C2=CC=C(C=C2)C(F)(F)F)C(=O)NC3=C(C=C4C(=C3)C=NN4)F
The assay is described as above. In short, it runs like this: as §1
With RBL1 (UniProt P28749), the log2 fold change was inactive: -0.073.

Turning to RANBP3 isoform 2 (UniProt Q9H6Z4), the log2 fold change is inactive: -0.003.

On to RAD23A isoform 3 (UniProt P54725), for which the log2 fold change was inactive: -0.155.

On to RAI1 (UniProt Q7Z5J4), for which the log2 fold change is inactive: -0.191.

As to RAB18 (UniProt H0Y6T8), the log2 fold change was inactive: 0.045.

For the target RASA1 (UniProt P20936), the log2 fold change was inactive: -0.1.

As to RAD51D (UniProt O75771), the log2 fold change was inactive: 0.182.

As for RAB27B (UniProt O00194), the log2 fold change is inactive: -0.018.

As to RAPGEF5, A0A590UJR0, the log2 fold change is inactive: -0.07.

As for RALGAPB (UniProt Q86X10), the log2 fold change was inactive: -0.007.

For RASSF3 (UniProt Q86WH2), the log2 fold change is inactive: -0.095.

Compound in another assay: CC1=C(C2=C(C=C1)C(=O)C3=CC=CC=C3N2CCCN)C
Described as above. In short, it runs like this: as §1
Take RBM14 (UniProt Q96PK6): the log2 fold change was inactive: 0.12.

For RAD50, A0A494C0Y7, the log2 fold change was inactive: 0.051.

Turning to RAB3B (UniProt P20337), the log2 fold change is inactive: -0.011.

With RANBP3 isoform 2 (UniProt Q9H6Z4), the log2 fold change was inactive: -0.059.

As for RAB18 (UniProt H0Y6T8), the log2 fold change was inactive: -0.038.

On to RALBP1 (UniProt Q15311), for which the log2 fold change is inactive: -0.087.

As for RASA1 (UniProt P20936), the log2 fold change was inactive: -0.152.

Take RAD17 (UniProt O75943): the log2 fold change is inactive: -0.053.

For RBBP8 isoform 2 (UniProt Q99708), the log2 fold change was inactive: 0.028.

Turning to RBCK1 (UniProt Q9BYM8), the log2 fold change was inactive: 0.127.

In the case of RAD51D (UniProt O75771), the log2 fold change is inactive: 0.019.

As for RAB27B (UniProt O00194), the log2 fold change was inactive: 0.027.

Turning to RAPGEF5, A0A590UJR0, the log2 fold change was inactive: 0.068.

As for RALGAPB (UniProt Q86X10), the log2 fold change was inactive: 0.024.

As to RAB3D (UniProt O95716), the log2 fold change was inactive: -0.104.
